Data: PubChem BioAssay AID1347426 (Functional Genomics Laboratory (NCATS/FGL), 2020)
About 1,400 (4.5%) of roughly 31,000 sequences were called active.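 The calls were made as follows: active = median seed-adjusted z-score above 1 or below -1; inactive = the rest.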 The list shows a part of the results.

assay: Novel Modifiers of Survival Motor Neuron (SMN) Protein: Gene Identification via Genome-wide siRNA Screen; conditions: HEK293T SMN2-luciferase reporter, siRNA knockdown, 72 h; actives lie on both sides;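 also: luminescence tracks full-length SMN protein made from the SMN2 reporter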
Summary of the method: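 Genome-wide siRNA screen (10418 genes, 3 siRNAs each, 1 pmol per well) by reverse transfection in HEK293T cells stably carrying an SMN2-luciferase reporter; luminescence after 72 hours, normalized to negative-control siRNA, log10-transformed, MAD-scored.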

| Sequence | median seed-adjusted z-score |
| --- | --- |
| GCACCUGGCAAAGAUCUAUTT against GNB2 | inactive: 0.561 |
| CAUGGAACCUACUACCAAATT against SELPLG | inactive: 0.0378 |
| CACACUUUUUGAACAAUAATT against ABTB2 | inactive: 0.432 |
| GACUAUAGGCACAACUACATT against ASGR2 | inactive: 0.0772 |
| GAAUGUGGAAGGCAACCUATT against LAMC3 | inactive: 0.394 |
| CCAAUGCCGUUUCCAUAGATT against ADAM12 | inactive: -0.343 |
| GGAUUGUUCCUGAAACAUUTT against DHTKD1 | inactive: 0.591 |
| GUAAAAACCUAAAAGUCAATT against AVPR1B | inactive: -0.423 |
| GAAGACAGGAAUGACCUAATT against VSX1 | inactive: -0.91 |
| GGGUUAUAGGAUUACAGAATT against TRIM22 | inactive: 0.363 |
| CCUCUACAGCAUUUUCUUATT against DIO3 | inactive: 0.0911 |
| GGAAGACGAUUGGAUCAAUTT against EMR4 | inactive: -0.475 |
| GCUCCUCAAAGGAUAUGAATT against CAB39L | inactive: 0 |
| CUGCAGUUCUUAAUACGAATT against PSMD1 | active: -1.61 |
| GAAGGGCUGUUGAAUUGUATT against HSD17B6 | inactive: 0.573 |
| CAAGAGCAGUUUAAUAGCATT against BAT3 | inactive: 0.567 |
| GGACCUACAUGCUUCUCAATT against PRPS1L1 | inactive: 0 |
| GGAGAAUUCUGUAUGGUUUTT against OBFC2B | inactive: -0.061 |
| GCUAUGAUGACAACUGGUATT against PVRL2 | inactive: -0.367 |
| GGAGAUCGUUCUGCACAGATT against PAEP | inactive: -0.0632 |
| CCAGAAAUCCUGAUGGGCATT against NLK | inactive: 0.256 |
| GGAUUUCAAGGUUGGGAGATT against FST | inactive: 0.357 |
| GGACUAGUAAUAAAGAGGATT against STAU1 | inactive: -0.143 |
| GUGAUAAAGUGAUAAGAUUTT against CPA6 | inactive: 0.343 |
| AGAACAGCUUCGUCAUGGATT against SUV39H1 | inactive: -0.0775 |
| GGACUAUCUAGUCAACAGATT against ENPEP | inactive: 0.666 |
| CCAUCUAGAUCUUCGUGGATT against SLITRK6 | inactive: -0.136 |

A stretch from further up:

| Sequence | median seed-adjusted z-score |
| --- | --- |
| GGACUAGUAAUAAAGAGGATT against STAU1 | inactive: -0.143 |
| GUGAUAAAGUGAUAAGAUUTT against CPA6 | inactive: 0.343 |
| AGAACAGCUUCGUCAUGGATT against SUV39H1 | inactive: -0.0775 |

(next part)

| Sequence | median seed-adjusted z-score |
| --- | --- |
| GACAGAAUGUUUGAGACAATT against GOSR1 | inactive: -0.252 |
| GCAAAGUCUUUCACCUCAATT against LHX5 | inactive: -0.414 |
| CGUGGUUGCAGAUACCUCATT against SPON2 | inactive: 0 |
| CAAAAUCCUACGAAAUUCATT against PCDHA1 | inactive: -0.013 |
| CCAGCACUAUGAUGCCAAATT against ANG | inactive: -0.481 |
| GGAAUUCCUGGAUAGAUUATT against TTC5 | inactive: -0.296 |
| GGACAAUGAUGAGCGCCUCTT against TPSAB1 | inactive: 0.197 |
| ACAUGCUCACCUUCACUUUTT against SEMA4C | inactive: -0.334 |
| AGACCCAGCUAGAUUCUGATT against GPR152 | inactive: -0.9 |
| GGACGUGACUUACAUAGUUTT against PRLR | inactive: 0.394 |
| GCAGAAAGGUGGUUAUAAUTT against ZNF718 | inactive: 0.0564 |
| GGCUAUGGGUGUGGAAGAATT against SLC22A8 | inactive: 0.175 |
| CCAGCAAUGCAUCCGAGUATT against TCEB3 | inactive: 0.232 |
| GAACCUCCGUGAUCGAUUUTT against PIP4K2C | inactive: 0.27 |
| CAUGAUCUCCGGCUACCUATT against SLCO2B1 | inactive: 0.289 |
| GGAACGCAUCUUCUCUAAATT against PKN3 | inactive: 0.476 |
| CCACCGAGCUAACAUCUGATT against MFAP3L | active: 1.03 |
| GAAUCUGGUUAUGAUACAATT against GUCY1B3 | inactive: -0.19 |
| CCAACGAUCUGGACCGUGUTT against MED16 | inactive: -0.6 |
| GGAUUAUAGUGUCACCUAUTT against CPD | inactive: -0.198 |
| GGAUAAUACAGAAGCAGAATT against SAP30BP | inactive: -0.257 |
| CACCUGCUAUGUUACGGGATT against BAT2 | inactive: 0.0889 |
| GACUCUUCUGACUAACAUATT against DACH1 | inactive: 0.562 |
| AGUGCAUGGAGGUAGGCAATT against TPST2 | inactive: -0.682 |
| GCUCUGAUCCUACCCUUAATT against PIK3C2B | inactive: -0.653 |
| UAAUCUAUGUAGCAAGAAATT against SULT1C4 | inactive: 0.00352 |
